Measurements published in publication PMC4316792, “The dehydrogenase region of the NADPH oxidase component Nox2 acts as a protein disulfide isomerase (PDI) resembling PDIA3 with a role in the binding of the activator protein p67^phox” (Frontiers in Chemistry, 2015).
These are yes or no findings as the source states them, for the method shown.

How the values were obtained:
[1] = target: p67^phox(1–212) in which cysteines 40, 45, 121, and 165 were mutated to serine (UniProt P19878); assay: SEC; gel filtration; native molecular mass of p67^phox(1–212) wild type and mutant; both purified
p67^phox(1–526) = target: T1, p67^phox(1–526) (UniProt P19878 1-526); assay: ELISA; protein—protein binding assay: p67^phox (0.5 μM in PBS) attached to 96-well plates 16–18 h at 4°C; NusA-Nox2 or NusA 0.5 μM in PBS with 0.1% Tween 20 and 1% casein, 1 h at room temperature; detected by anti-NusA antibody and peroxidase-conjugated anti-mouse IgG, mAbs at 650 nm per min; both …
T1 construct: construct as in Mizrahi et al., 2010; also called full-length p67^phox; 6His-p67^phox; source: E. coli, purified (Nickel Sepharose); not shown: 6His, N-terminal, kept
T1 sequence (looked up): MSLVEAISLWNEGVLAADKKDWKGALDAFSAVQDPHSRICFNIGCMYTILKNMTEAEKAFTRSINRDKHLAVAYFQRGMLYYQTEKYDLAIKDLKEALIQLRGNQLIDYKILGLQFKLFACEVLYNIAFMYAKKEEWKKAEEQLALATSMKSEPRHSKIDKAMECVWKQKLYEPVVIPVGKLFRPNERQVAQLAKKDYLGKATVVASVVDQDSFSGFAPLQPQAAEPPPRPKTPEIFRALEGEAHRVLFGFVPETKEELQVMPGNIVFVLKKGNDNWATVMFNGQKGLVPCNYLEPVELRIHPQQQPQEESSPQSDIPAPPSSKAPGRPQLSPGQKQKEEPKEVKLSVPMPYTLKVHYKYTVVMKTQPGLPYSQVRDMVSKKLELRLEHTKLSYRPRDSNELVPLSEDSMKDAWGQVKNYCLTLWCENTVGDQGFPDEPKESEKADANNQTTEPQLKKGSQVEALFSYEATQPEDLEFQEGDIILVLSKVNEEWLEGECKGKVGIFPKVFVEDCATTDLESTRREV

p67^phox(1–212) [2] = target: T2, p67^phox(1–212) (UniProt P19878 1-212); assay: as above
T2 construct: contains four cysteines (40, 45, 121, 165); source: E. coli, purified (Nickel Sepharose); not shown: 6His, N-terminal, kept
T2 sequence (looked up): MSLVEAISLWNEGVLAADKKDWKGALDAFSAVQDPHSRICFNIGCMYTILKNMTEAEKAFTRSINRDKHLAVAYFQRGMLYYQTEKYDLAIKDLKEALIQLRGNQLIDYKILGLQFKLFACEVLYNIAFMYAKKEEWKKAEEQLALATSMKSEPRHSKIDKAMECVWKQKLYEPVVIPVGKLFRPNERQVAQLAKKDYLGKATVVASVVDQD

p67^phox(1–212) [3] = target: T2, p67^phox(1–212); assay: SEC; gel filtration; native molecular mass of p67^phox(1–212) wild type and mutant; both purified

For “p67^phox(1–212) in which cysteines 40, 45, 121, and 165 were mutated to serine (from UniProt P19878 1-212) (domain or fragment)”, the binding [1] was “no binding”.

NusA (from UniProt P0AFF6 1-495) was tested, and the binding (p67^phox(1–526)) was “no binding (tested: 0.5 μM)” and the binding (p67^phox(1–212) [2]) was “no binding (tested: 0.5 μM)”.

For “p67^phox(1–212) (from UniProt P19878 1-212) (domain or fragment)”, the binding (p67^phox(1–212) [3]) was “no binding”.
